In PubChem BioAssay AID651640 (Broad Institute, 2012):
Screen size: about 350,000 compounds; about 6,000 (1.7%) were called active. Inconclusive results, whose numbers are uncertain, are shown with a selection of clear calls. Rule as the data show it: active = CPE inhibition above about 20% (passing the limit was not always enough); inconclusive = no clear call, values can overlap the other calls; tested in BHK-21 cells.

Assay: protection of cells from dengue 2 killing – plate reader, single concentration, primary screen (AID 651640);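 also: 0% = median of neutral control wells and 100% = median of positive control wells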
Settings: DENV2-infected cells, cytopathic effect rescue, at 9.99 µM, stronger effect = higher value

| Compound | CPE inhibition |
| --- | --- |
| COc1cccc(N2C(=O)NC(=O)/C(=C/c3ccc4c(c3)Cc3ccccc3-4)C2=O)c1 | inactive: 10.8% |
| C=CCc1ccc2c(c1)OCO2 | active: 93% |
| CC(=O)OC1C(=O)OCC23CCC4(C)OC4C2OC2CC(OC(=O)C=CC=CC(=O)OCCC1C)C3(C)C21CO1 (configuration not stated) | inconclusive: 38.7% |
| O=C(Cc1ccccc1)N1CCN(CCCc2ccccc2)CC1 | inconclusive: 26% |
| O=C(c1ccc(F)c([N+](=O)[O-])c1)N1CC2CC(C1)c1cccc(=O)n1C2 (configuration not stated) | inconclusive: 26% |
| O=c1[nH]c2ccccc2n1C1CCN(C(CCc2ccccc2)c2nnnn2C2CCCC2)CC1 (configuration not stated) | inconclusive: 20.9% |
| OCCOc1ccccc1 | inconclusive: 26.2% |
| CC1CC2C(C(O)CC3(C)C(O)CCC23)C2(C)CCC(=O)C=C12 (configuration not stated) | inactive: -6.38% |
| OCCOCCO | inconclusive: 31.5% |
| CC=Cc1ccc2n(c1=O)C[C@@H]1[C@@H](CO)[C@H](C(=O)O)[C@H]2N1S(=O)(=O)c1ccccc1C (mixture of isomers) | inconclusive: 30.8% |
| COc1ccc(NP(=O)(Oc2ccc(Cl)cc2)Oc2ccc(Cl)cc2)cc1OC | inactive: 13.1% |
| C[C@]12CCC(=O)C=C1C=C[C@@H]1[C@@H]2CC[C@@]2(C)[C@H]1CC[C@@]2(O)CCC(=O)O | inactive: -6.89% |
| COc1ccc(CC2C(=O)NC(C)C(=O)N(C)C3C(=O)N(C)C(Cc4ccc(O)c(c4)Oc4ccc(cc4)C3O)C(=O)NC(C)C(=O)NC(C)C(=O)N2C)cc1 (configuration not stated) | active: 107% |
| O=c1cc(CN2CCNCC2)nc2sccn12 | inconclusive: 23.7% |
| O=C1NC(=O)N(c2ccc3c(c2)OCO3)C(=O)/C1=C\c1ccc(-c2ccccc2C(=O)O)o1 | inactive: -5.94% |
| Cc1c(NC(=O)C(C)OC(=O)Cc2ccccc2)c(=O)n(-c2ccccc2)n1C (configuration not stated) | inconclusive: 36.4% |
| COc1ccc2[nH]c3c(c2c1)CCNC3 | inconclusive: 30.3% |
| COc1cc(/C=C/c2nc3ccccc3c(=O)n2-c2ccc(O)cc2)ccc1O | inactive: -0.529% |
| C[C@]12C[C@@H](O)[C@H](O)CC1=CCC1C2CC[C@@]2(C)C1CC[C@@H]2O (some centres not stated) | inactive: 16.6% |
| O=C(Cc1cccnc1)N1CCCCN2[C@H](C1)[C@H](c1ccc(C#CC3(O)CCCC3)cc1)[C@@H]2CO | active: 24.8% |
| CN(C)CCSC1c2ccccc2CSc2ccccc21 (configuration not stated) | inconclusive: 20.8% |

| Compound | CPE inhibition |
| --- | --- |
| Cc1ccc(OC(=O)N(C)C[C@H]2OCc3cnnn3CCCC(=O)N([C@H](C)CO)C[C@@H]2C)cc1 | inconclusive: 53.4% |
| C[C@H]1[C@@H](c2ccccc2)O[C@@H](c2ccccc2Br)N1C | inconclusive: 49.9% |
| C[C@]12CCC3[C@@H](CCC4=CC(=O)CC[C@@]43CO)C1CCC2=O (some centres not stated) | inactive: -3.53% |
| C[C@@H]([C@@H](O)c1ccccc1)N(C)C(=O)Cc1ccccc1 | inconclusive: 30.4% |
| CC1CC(C)(O)CC(C(O)CC2CC(=O)NC(=O)C2)C1=O (configuration not stated) | inconclusive: 43.6% |
| COc1ccc(-n2c(-c3ccccc3F)nc3ccccc3c2=O)cc1 | inconclusive: 24% |
| CSc1ccc(CN2CCN(c3ccccc3C)CC2)cc1 | inactive: 14.4% |
| CCOC(=O)[C@]12Cc3ccccc3[C@H]1N(CCC(=O)OC)C(=O)c1cc(OC)ccc12 | active: 30.4% |
| COP(=O)(NC(C)=O)SC (configuration not stated) | inactive: -8.65% |
| COC(=O)C1=C(c2ccc(OC(F)(F)F)cc2)C[C@@H]2CC[C@H]1N2C(=O)NCc1ccco1 | inactive: 13.2% |
| CCCN1[C@@H]2Cn3c(ccc(-c4ccc(F)cc4)c3=O)[C@H]1[C@@H](C(=O)OC)[C@@H]2CO | inactive: -3.29% |
| O=[N+]([O-])c1ccc(-c2ccccc2)c([As](=O)(O)O)c1 | inactive: -2.06% |
| O=C(Nc1nc(-c2ccccc2)c(-c2ccccc2)s1)c1ccc(S(=O)(=O)N(CCCl)CCCl)cc1 | inconclusive: 23% |
| Cn1c(O)c(N=Nc2cccc(S(=O)(=O)N3CCOCC3)c2)c(=O)n(C)c1=O | inconclusive: 33.5% |
| S=C=Nc1cccc(C2(N3CCCCC3)CCCCC2)c1 | inactive: 0.318% |
| Cc1ccccc1C(=O)N1CC1C (configuration not stated) | inconclusive: 42.7% |
| COc1ccc2c(c1)C13CCN4CC5=CCOC6CC(=O)N2C1C6C5CC43 (configuration not stated) | active: 70.7% |
| CC(C)(C)[C@]1(O)C[C@@H]2OC(=O)C[C@@]23C(=O)O[C@@H]2OC(=O)[C@@H](O)C213 (some centres not stated) | inconclusive: 22.6% |
| COC(=O)C1=C(c2cc3ccccc3s2)C[C@@H]2CC[C@H]1N2C(=O)NCc1ccc(C(F)(F)F)cc1 | inconclusive: 53.8% |
| CCCCC/C(=N/O)c1c(C)[nH]c2ccccc12 | inconclusive: 35.8% |
| O=P(O)(Oc1ccccc1)OC(c1ccccc1)C(F)(F)F (configuration not stated) | inconclusive: 30.8% |

| Compound | CPE inhibition |
| --- | --- |
| COc1cc2c(cc1OC)C13CCN4C=C5CCOC6CC(=O)N2C1C6C5CC43 (configuration not stated) | inconclusive: 47.1% |
| Cc1cc(=O)oc2cc(OCC(=O)N3CCC(C(=O)O)(c4ccccc4)CC3)ccc12 | active: 74.9% |
| CC1OC(C[N+](C)(C)C)CC1O (configuration not stated) | inconclusive: 47.2% |
| CN1C2CCC1CC(OC(=O)c1cccc(O)c1)C2 (configuration not stated) | active: 28.7% |
| N#Cc1ccc(CN2Cc3ccccc3-n3nncc3C2)cc1 | active: 109% |
| COC(=O)C1=C(c2ccc(Cl)c(C(F)(F)F)c2)C[C@@H]2CC[C@H]1N2C(=O)NCc1cc(C)oc1C(F)(F)F | active: 25.5% |
| CC(NC(C)(C)C)C(=O)c1cccc(Cl)c1 (configuration not stated) | inconclusive: 31.2% |
| Cc1ccc(S(=O)(=O)N2Cc3cc(-c4cccc(F)c4)ccc3-n3nncc3C2)cc1 | inconclusive: 20.7% |
| COC(=O)[C@H]1[C@H](CO)[C@H]2Cn3c(ccc(C4=CCCCC4)c3=O)[C@@H]1N2C(=O)NC(C)C | inactive: -8.8% |
| O=C1c2ccccc2-n2nnc(-c3ccccc3)c2C2c3cc(Br)ccc3CCN12 (configuration not stated) | inconclusive: 72.4% |
| C[C@H](CO)N1C[C@H](C)[C@@H](CN(C)C(=O)Oc2cccc3ccccc23)OCc2cn(nn2)CCCC1=O | inconclusive: 27.4% |
| CCOC(=O)CNC(=O)N1Cc2cc(Br)ccc2-n2nncc2C1 | inconclusive: 27.8% |
| CCC(C)C1N=C(c2ccccc2)c2cc(Cl)ccc2N(CC(=O)NCc2ccco2)C1=O (configuration not stated) | inconclusive: 51.4% |
| O=c1cccc2n1CC1CNC[C@H]2C1 | inconclusive: 24% |
| COC(=O)C1=C(c2ccccc2OCc2ccccc2)C[C@@H]2CC[C@H]1N2C(=O)NCc1ccc(C(F)(F)F)cc1 | inconclusive: 75.2% |
| Cc1cc(OCc2ccc([N+](=O)[O-])cc2)c2c3c(c(=O)oc2c1)CCCC3 | active: 151% |
| CCN1C[C@]2(COC(=O)c3ccccc3N)CC[C@H](OC)C34[C@@H]5C[C@H]6[C@H](OC)[C@@H]5[C@](O)(C[C@@H]6OC)[C@@](O)([C@H]13)[C@@H](OC)[C@@H]42 | inactive: 8.07% |
| CCCN(CCC)CCc1c[nH]c2ccccc12 | inactive: 8.09% |
| CN(C)CC1CSCCC1(O)c1ccc(C(F)(F)F)cc1 (configuration not stated) | active: 68.9% |
| CCCCCSc1cc(O)c(C(CNC)C(C)C)cc1OC (configuration not stated) | inactive: 11.3% |
| C/C=C/c1ccc(C2[C@@H]3CN(Cc4cccc(F)c4)C[C@H]2N3)cc1 (some centres not stated) | inconclusive: 28.3% |

Given field by field: four of the compounds above
COc1cc2c(cc1OC)C13CCN4C=C5CCOC6CC(=O)N2C1C6C5CC43 (configuration not stated)
  CPE inhibition: inconclusive: 47.1%
Cc1cc(=O)oc2cc(OCC(=O)N3CCC(C(=O)O)(c4ccccc4)CC3)ccc12
  CPE inhibition: active: 74.9%
CC1OC(C[N+](C)(C)C)CC1O (configuration not stated)
  CPE inhibition: inconclusive: 47.2%
CN1C2CCC1CC(OC(=O)c1cccc(O)c1)C2 (configuration not stated)
  CPE inhibition: active: 28.7%

Following part

| Compound | CPE inhibition |
| --- | --- |
| COc1ccccc1N=Nc1c(O)[nH]c(=S)[nH]c1=O | inconclusive: 34.7% |
| C[C@]12CCC3C(CC[C@H]4C[C@H](O)CC[C@]34C)C1C[C@H](O)[C@H]2O (some centres not stated) | inconclusive: 47.7% |
| COc1cc(CC(C)N)c(OC)cc1I (configuration not stated) | inconclusive: 98.5% |
| C=C[C@@H]1C2=CCOC(=O)C2=CO[C@H]1O[C@@H]1O[C@H](CO)[C@@H](O)[C@H](O)[C@H]1O | active: 22.7% |
| CN(Cc1ccccc1)C(=O)CN1CCCC1=O | inconclusive: 22.8% |
| C/C=C1/CN2C3CC1C(CO)(C(=O)OC)C2Cc1c3n(C)c2ccccc12 (configuration not stated) | inconclusive: 42.8% |
| O=C(Cc1cccnc1)N1CCCCN2[C@H](C1)[C@H](c1ccc(C#CC3CCCC3)cc1)[C@@H]2CO | inactive: 19.5% |
| S=P(N1CCOCC1)(N1CC1)N1CC1 | inconclusive: 66.1% |
| O[C@H]1[C@H](O)[C@@H](O)CN2CC[C@H](O)[C@H]12 | inactive: -7.96% |
| CNc1cc(Cl)c2nonc2c1[N+](=O)[O-] | inactive: -2.35% |
| COc1ccc(-c2nn(Cc3ccccc3)cc2C(=O)NC2CC2)cc1OC | inconclusive: 55.4% |
| COC(=O)[C@@H]1[C@@H](CO)[C@@H]2Cn3c(ccc(-c4ccncc4)c3=O)[C@H]1N2CCc1ccccc1 | active: 107% |
| COC(=O)C1=C(c2ccc(OC(F)(F)F)cc2)C[C@@H]2CC[C@H]1N2C(=O)NC1CCCCC1 | active: 37.5% |
| CC1CN1c1cc2c(c3c1ccn3C)C1CCC2C1 (configuration not stated) | inconclusive: 23.1% |
| Cc1cccc(-n2c(O)c(/C=C3/C(c4ccccc4)=Nc4ccccc43)c(=O)[nH]c2=O)c1 | inconclusive: 26.4% |
| COC(=O)C1=C(c2c(C)noc2C)C[C@@H]2CC[C@H]1N2C(=O)N1CCC(O)(c2ccc(Cl)cc2)CC1 | inconclusive: 22% |
| COc1ccc(NC(=O)[C@@H](NC(=O)N2C[C@H]3C[C@@H](C2)c2cccc(=O)n2C3)C(C)C)cc1 | inconclusive: 32.4% |
| Cc1c(O)ccc(C(=O)CN2CC(C)OC(C)C2)c1O (configuration not stated) | inconclusive: 46.7% |
| CCOC(=O)c1cc2cc(OC)ccc2n1C1CCN(Cc2ccccc2)CC1 | active: 35% |
